The text below walks through data of PMC3767733.

Chains of the proteins cited; added tags and fusions are not shown. Residues count along the entry.
UniProt O08589, residues 21-92: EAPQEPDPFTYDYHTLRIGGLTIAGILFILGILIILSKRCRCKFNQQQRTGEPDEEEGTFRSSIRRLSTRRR

These are yes or no findings as the source states them, for the method shown. Binding seen in cells or lysates may run through a third protein. Some entries that bind do so weakly or less than the wild type.

The target of the assay is T1, Kir2.1 (rat (endogenous in rat ventricular tissue)) (UniProt Q64273).
T1 sequence: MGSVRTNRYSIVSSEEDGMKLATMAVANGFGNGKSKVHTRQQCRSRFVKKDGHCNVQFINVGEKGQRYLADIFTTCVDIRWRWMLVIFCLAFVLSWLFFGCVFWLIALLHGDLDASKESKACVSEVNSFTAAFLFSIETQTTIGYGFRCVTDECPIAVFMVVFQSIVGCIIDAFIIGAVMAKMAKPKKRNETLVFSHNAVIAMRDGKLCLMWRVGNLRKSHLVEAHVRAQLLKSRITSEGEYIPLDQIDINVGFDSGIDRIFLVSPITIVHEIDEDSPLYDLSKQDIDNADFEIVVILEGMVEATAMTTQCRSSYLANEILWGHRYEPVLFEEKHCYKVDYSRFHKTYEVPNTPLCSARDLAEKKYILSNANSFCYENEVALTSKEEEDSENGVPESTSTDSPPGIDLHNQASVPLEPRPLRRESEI
The assay can be described thus: co-IP; pre-cleared whole cell lysates incubated with goat anti-Kir2.1 antibody on Protein A/G dynabeads overnight at 4°C; washed with 1% TBST; non-reducing, non-denaturing elution; blot with rabbit anti-PLM antibody.

As for “phospholemman (from UniProt O08589 21-92)”, the binding entry is listed as “binds”.
